From the supplement of paper PMC8104966
Some of the results follow. Single values are uncertain here, since repeats match poorly.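 U2OS cells carrying ACE2 were mixed with U2OS cells carrying full-length spike, and fusion was scored by imaging as the share of nuclei showing both cell types' fluorescent markers. A compound counts as an inhibitory hit when it is non-toxic and its fusion z-score falls below -3, meaning more than three standard deviations below the plate's DMSO wells.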

The molecules below were run on U2OS ACE2 x SARS-CoV-2 spike co-culture (assay: cell-cell fusion (fraction fused) z-score vs plate DMSO control; higher = more fusion). Settings: 30 µM; 5 h; toxicity class: non-toxic, passed QC.

Question: With `COC(=O)[C@@H]1OC(=O)C2OC23[C@@]1(C)CCC1[C@@]2(C)CCC(=O)C(C)(C)C2C[C@@H](OC(C)=O)[C@]13C` (stereo partly drawn) as the molecule, how does the “cell-cell fusion (z-score)” value read?
Answer: inactive: 1.91

Question: How did the “cell-cell fusion (z-score)” value turn out when `Br.CN1[C@@H]2C[C@@H](OC(=O)[C@H](CO)c3ccccc3)C[C@H]1[C@@H]1O[C@@H]12.O.O.O` [Scopolamine HBr trihydrate] was run?
Answer: inactive: 1.93

Question: For `CN(C)CCCN1c2ccccc2CCc2ccc(Cl)cc21.Cl` [Clomipramine hydrochloride], which “cell-cell fusion (z-score)” value is on record?
Answer: inactive: -2.15

Question: With `O=c1c2ccccc2oc2ccccc12` as the molecule, how does the “cell-cell fusion (z-score)” value read?
Answer: inactive: 2.93

Question: How did the “cell-cell fusion (z-score)” value turn out when `Nc1nc2[nH]cc(CCc3ccc(C(=O)N[C@@H](CCC(=O)[O-])C(=O)[O-])cc3)c2c(=O)[nH]1.[Na+].[Na+]` [Pemetrexed disodium] was run?
Answer: inactive: 1.31

Question: With `C[C@@H]1O[C@@H](O[C@@H]2C=C3CCC4C(CC[C@]5(C)[C@@H](c6ccc(=O)oc6)CC[C@]45O)[C@@]3(C)CC2)C(O)C(O)[C@H]1O` (stereo partly drawn) as the molecule, how does the “cell-cell fusion (z-score)” value read?
Answer: inactive: 0.00325

Question: `CNS(=O)(=O)Cc1ccc2[nH]cc(CCN(C)C)c2c1.O=C(O)CCC(=O)O` [Sumatriptan succinate] was tested. Which “cell-cell fusion (z-score)” value did it give?
Answer: inactive: 2.32

Question: Which “cell-cell fusion (z-score)” value does the source give for `NC(=O)[C@@H]1CC[C@@H]2CN1C(=O)N2OS(=O)(=O)[O-].[Na+]` [Avibactam sodium] here?
Answer: inactive: 1.71

Question: For `OCCN1CCN(CCCN2c3ccccc3Sc3ccc(Cl)cc32)CC1` [Perphenazine], which “cell-cell fusion (z-score)” value is on record?
Answer: inactive: -0.297

Question: `CC(=O)N[C@@H](CCC(N)=O)C(=O)O.NCCO` was tested. Which “cell-cell fusion (z-score)” value did it give?
Answer: inactive: 0.918

Question: For `CC(=O)O[C@H]1CC[C@@]2(C)C(CC[C@]3(C)C2CC=C2C4CC(C)(C)CC[C@]4(C)CC[C@]23C)C1(C)C` (stereo partly drawn) [beta-AMYRIN ACETATE], which “cell-cell fusion (z-score)” value is on record?
Answer: inactive: 1.84

Question: How did the “cell-cell fusion (z-score)” value turn out when `COc1ccc(-c2nc(N3CCOCC3)c3sc(CN(C)c4ncc(C(=O)NO)cn4)cc3n2)cn1` was run?
Answer: inactive: 1.9

Question: Which “cell-cell fusion (z-score)” value does the source give for `CC(C)(O)CC[C@@H](O)[C@](C)(O)C1CC[C@@]2(O)C3=CC(=O)C4C[C@@H](O)[C@@H](O)C[C@]4(C)C3CC[C@]12C` (stereo partly drawn) here?
Answer: inactive: 2.13

Question: Which “cell-cell fusion (z-score)” value does the source give for `C[C@@H]1CN(CC(=O)Nc2ccc3c(c2)Cc2cccc(-c4cc(=O)cc(N5CCOCC5)o4)c2S3)C[C@H](C)O1` here?
Answer: inactive: 0.234

Question: With `COC(=O)C1=C(C)NC(C)=C(C(=O)OC(C)(C)CN(C)CCC(c2ccccc2)c2ccccc2)C1c1cccc([N+](=O)[O-])c1.Cl` (stereo not drawn) [Lercanidipine hydrochloride hemihydrate] as the molecule, how does the “cell-cell fusion (z-score)” value read?
Answer: inactive: 3.12

Question: `CC(C)N1CCN(c2ccc(OC[C@H]3CO[C@](Cn4cncn4)(c4ccc(Cl)cc4Cl)O3)cc2)CC1` [Terconazole] was tested. Which “cell-cell fusion (z-score)” value did it give?
Answer: inactive: 2.2

Question: Which “cell-cell fusion (z-score)” value does the source give for `COc1cccc(C(=O)NCCN2CCN(c3ccc(Cl)cc3)CC2)c1` here?
Answer: inactive: 1.83

Question: With `O=C(O)C1CSCN1` (stereo not drawn) as the molecule, how does the “cell-cell fusion (z-score)” value read?
Answer: inactive: 0.942

Question: `CN1CCC(OC(c2ccccc2)c2ccccc2)CC1.Cl` was tested. Which “cell-cell fusion (z-score)” value did it give?
Answer: inactive: 0.821

Question: Which “cell-cell fusion (z-score)” value does the source give for `CC1(C)[C@H](C(=O)O)N2C(=O)C[C@H]2S1(=O)=O` [Sulbactam] here?
Answer: inactive: 2.63

Question: For `COc1ccnc(CS(=O)c2nc3cc(OC(F)F)ccc3[nH]2)c1OC` (stereo not drawn), which “cell-cell fusion (z-score)” value is on record?
Answer: inactive: 3.53

Question: For `CCN(CCO)CCCC(C)Nc1ccnc2cc(Cl)ccc12.O=S(=O)(O)O` (stereo not drawn) [Hydroxychloroquine sulfate], which “cell-cell fusion (z-score)” value is on record?
Answer: inactive: 1.87

Question: How did the “cell-cell fusion (z-score)” value turn out when `CC12CCC3c4ccc(O)cc4CCC3C1C[C@H](O)[C@@H]2O` (stereo partly drawn) was run?
Answer: active: -3.79

Question: For `O=C(O)CN(CCN(CC(=O)O)CC(=O)O)CCN(CC(=O)O)CC(=O)O`, which “cell-cell fusion (z-score)” value is on record?
Answer: inactive: -1.23

Question: How did the “cell-cell fusion (z-score)” value turn out when `O=C(O)CN(CCN(CC(=O)O)CC(=O)O)CCN(CC(=O)O)CC(=O)O` [Diethylenetriaminepentaacetic acid] was run?
Answer: inactive: 2.55

Question: `CCC(CC)O[C@@H]1C=C(C(=O)O)C[C@H](N)[C@H]1NC(C)=O` [Oseltamivir acid] was tested. Which “cell-cell fusion (z-score)” value did it give?
Answer: inactive: 0.691

Question: Which “cell-cell fusion (z-score)” value does the source give for `Cc1nccc2c1[nH]c1ccccc12` here?
Answer: inactive: 0.631

Question: For `CN(C)CCCN1c2ccccc2CCc2ccc(Cl)cc21.Cl`, which “cell-cell fusion (z-score)” value is on record?
Answer: active: -4.16

Question: For `CCN(CC)CCNC(=O)c1ccc(NC(C)=O)cc1.Cl` [N-Acetylprocainamide hydrochloride], which “cell-cell fusion (z-score)” value is on record?
Answer: inactive: 1.28

Question: `CCN(CC)CCNC(=O)c1ccc(NC(C)=O)cc1.Cl` was tested. Which “cell-cell fusion (z-score)” value did it give?
Answer: inactive: 1.59

Question: `CC(C)[N+](C)(CCOC(=O)C1c2ccccc2Oc2ccccc21)C(C)C.[Br-]` [Propantheline bromide] was tested. Which “cell-cell fusion (z-score)” value did it give?
Answer: inactive: 0.539

Question: For `COc1cc([C@@H]2c3cc4c(cc3[C@@H](O[C@@H]3O[C@@H]5CO[C@@H](C)O[C@H]5[C@H](O)[C@H]3O)[C@H]3COC(=O)[C@H]23)OCO4)cc(OC)c1O` [Etoposide], which “cell-cell fusion (z-score)” value is on record?
Answer: inactive: 1.23

Question: For `CS(=O)(=O)O.N#CC1(c2ccc(NC(=O)c3cccnc3NCc3ccncc3)cc2)CCCC1` [Apatinib], which “cell-cell fusion (z-score)” value is on record?
Answer: inactive: -0.31

Question: For `CCN(CC)C(=O)N1CCN(C)CC1.O=C(O)CC(O)(CC(=O)O)C(=O)O` [Diethylcarbamazine citrate], which “cell-cell fusion (z-score)” value is on record?
Answer: inactive: 3.02

Question: Which “cell-cell fusion (z-score)” value does the source give for `C[C@@H](OC[C@@]1(c2ccccc2)CC[C@]2(CCC(=O)N2)CN1)c1cc(C(F)(F)F)cc(C(F)(F)F)c1.Cl` [Rolapitant hydrochloride] here?
Answer: active: -13.1

Question: For `C[C@H](NC(=O)Cc1cc(F)cc(F)c1)C(=O)N[C@@H]1C(=O)N(C)c2ccccc2-c2ccccc21`, which “cell-cell fusion (z-score)” value is on record?
Answer: inactive: 1.86

Question: With `N#CC[C@@H](C1CCCC1)n1cc(-c2ncnc3[nH]ccc23)cn1` [S-Ruxolitinib] as the molecule, how does the “cell-cell fusion (z-score)” value read?
Answer: inactive: 1.6

Question: With `N#CC[C@@H](C1CCCC1)n1cc(-c2ncnc3[nH]ccc23)cn1` as the molecule, how does the “cell-cell fusion (z-score)” value read?
Answer: active: -3.16

Question: For `CC(C)(C)NCC(O)c1cc(O)cc(O)c1.CC(C)(C)NCC(O)c1cc(O)cc(O)c1.O=S(=O)(O)O` (stereo not drawn) [Terbutaline Sulfate], which “cell-cell fusion (z-score)” value is on record?
Answer: inactive: 3.55

Question: Which “cell-cell fusion (z-score)” value does the source give for `CCC(C)n1ncn(-c2ccc(N3CCN(c4ccc(OC[C@H]5CO[C@](Cn6cncn6)(c6ccc(Cl)cc6Cl)O5)cc4)CC3)cc2)c1=O` (stereo partly drawn) [Itraconazole] here?
Answer: inactive: 2.18

Question: With `O=C1CCC(N2C(=O)c3ccccc3C2=O)C(=O)N1` (stereo not drawn) as the molecule, how does the “cell-cell fusion (z-score)” value read?
Answer: inactive: 2.39

Question: For `NC(=O)c1ncn([C@@H]2O[C@H](CO)[C@@H](O)[C@H]2O)n1` [Ribavirin], which “cell-cell fusion (z-score)” value is on record?
Answer: inactive: 1.96

Question: Which “cell-cell fusion (z-score)” value does the source give for `O=C([O-])CCCc1ccccc1.[Na+]` here?
Answer: inactive: 0.945

Question: For `CC(C)N(CCC(=O)c1ccc2ccccc2c1)Cc1ccccc1.Cl`, which “cell-cell fusion (z-score)” value is on record?
Answer: inactive: 1.44

Question: Which “cell-cell fusion (z-score)” value does the source give for `CN1C(C(=O)Nc2ccccn2)=C(O)c2sc(Cl)cc2S1(=O)=O` here?
Answer: inactive: 2.01

Question: For `CC(CCC(=O)O)[C@H]1CCC2C3C[C@H](O)[C@@H]4C[C@H](O)CC[C@]4(C)C3CC[C@@]21C` (stereo partly drawn) [alpha-HYDROXYDEOXYCHOLIC ACID], which “cell-cell fusion (z-score)” value is on record?
Answer: inactive: 2.88

Question: `CC(=O)O[C@@]12CO[C@@H]1C[C@H](O)[C@@]1(C)C(=O)[C@H](O)C3=C(C)[C@@H](OC(=O)[C@H](O)[C@@H](NC(=O)OC(C)(C)C)c4ccccc4)C[C@@](O)([C@@H](OC(=O)c4ccccc4)[C@H]21)C3(C)C` [Docetaxel] was tested. Which “cell-cell fusion (z-score)” value did it give?
Answer: inactive: 0.72

Question: Which “cell-cell fusion (z-score)” value does the source give for `Cl.Clc1cccc(Cl)c1NC1=NCCN1` [Clonidine hydrochloride] here?
Answer: inactive: 1.2

Question: How did the “cell-cell fusion (z-score)” value turn out when `C[C@H]1[C@H](OC(=O)CCC(=O)O)O[C@@H]2O[C@]3(C)CC[C@H]4[C@H](C)CC[C@@H]1[C@@]24OO3` was run?
Answer: inactive: 1.02

Question: For `Cl.NCCc1ccccc1`, which “cell-cell fusion (z-score)” value is on record?
Answer: inactive: 1.2

Question: For `Cc1cn(-c2cc(NC(=O)c3ccc(C)c(Nc4nccc(-c5cccnc5)n4)c3)cc(C(F)(F)F)c2)cn1` [Nilotinib], which “cell-cell fusion (z-score)” value is on record?
Answer: inactive: 5.42

Question: How did the “cell-cell fusion (z-score)” value turn out when `Cl.Cl.O=S(=O)(NCCNC/C=C/c1ccc(Br)cc1)c1cccc2cnccc12` was run?
Answer: active: -4.17

Question: `COc1cc2c(Nc3ccc(Br)cc3F)ncnc2cc1OCC1CCN(C)CC1` [Vandetanib (Zactima)] was tested. Which “cell-cell fusion (z-score)” value did it give?
Answer: inactive: 1.28

Question: Which “cell-cell fusion (z-score)” value does the source give for `CC(=O)NS(=O)(=O)c1ccc(NC(=O)c2ccccc2C(=O)O)cc1` here?
Answer: inactive: 1.95

Question: With `Cn1cc(-c2ccc3ncc(Cc4ccc5ncccc5c4)n3n2)cn1` as the molecule, how does the “cell-cell fusion (z-score)” value read?
Answer: inactive: -0.513

Question: How did the “cell-cell fusion (z-score)” value turn out when `Nc1ncnc2c1ncn2[C@@H]1O[C@H](COP(=O)(O)CP(=O)(O)OP(=O)([O-])[O-])[C@H](O)C1O.[Li+].[Li+]` (stereo partly drawn) [alpha,beta-Methylene adenosine 5'-triphosphate dilithium] was run?
Answer: inactive: 2.37

Question: Which “cell-cell fusion (z-score)” value does the source give for `O=C(O)COCCN1CCN([C@H](c2ccccc2)c2ccc(Cl)cc2)CC1` [Levocetirizine] here?
Answer: inactive: 2.58

Question: With `CCOC(=O)N1c2ccc(C(F)(F)F)cc2[C@@H](N(Cc2cc(C(F)(F)F)cc(C(F)(F)F)c2)C(=O)OC)C[C@H]1CC` [Torcetrapib] as the molecule, how does the “cell-cell fusion (z-score)” value read?
Answer: inactive: 2.7

Question: `OC(CN1CCC(Cc2ccc(F)cc2)CC1)c1ccc(Cl)cc1` (stereo not drawn) [Eliprodil] was tested. Which “cell-cell fusion (z-score)” value did it give?
Answer: inactive: 4.46

Question: Which “cell-cell fusion (z-score)” value does the source give for `COCCc1ccc(OCC(O)CNC(C)C)cc1.O=C(O)C(O)C(O)C(=O)O` (stereo not drawn) here?
Answer: inactive: -0.379

Question: With `COc1cc(OC)c(C(C)=O)c(O)c1C` as the molecule, how does the “cell-cell fusion (z-score)” value read?
Answer: inactive: 1.39

Question: How did the “cell-cell fusion (z-score)” value turn out when `CC1(C)C2CC[C@]3(C)C(C(=O)C=C4[C@@H]5C[C@@](C)(C(=O)[O-])CC[C@]5(C)CC[C@]43C)[C@@]2(C)CC[C@@H]1OC(=O)CCC(=O)[O-].[Na+].[Na+]` (stereo partly drawn) was run?
Answer: inactive: 1.35

Question: Which “cell-cell fusion (z-score)” value does the source give for `C[C@H](CSC(=O)c1ccccc1)C(=O)N1C[C@@H](Sc2ccccc2)CC1C(=O)[O-].C[C@H](CSC(=O)c1ccccc1)C(=O)N1C[C@@H](Sc2ccccc2)CC1C(=O)[O-].[Ca+2]` (stereo partly drawn) [Zofenopril calcium] here?
Answer: inactive: 2.58
